PubChem BioAssay AID1259254 | NCATS, 2017

Screen: 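Genome-wide screen for genes that prevent DNA re-replication in cancer cells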 (primary screen)
System: human HCT116 colorectal cancer cells
Knock-down reagent: single siRNA against human genes
Timing: 3 days
Detection: 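Nuclei stained with Hoechst and imaged; cell-cycle phase assigned by DNA content; G2 share scaled per plate, non-targeting siRNA 0%, GMNN siRNA 100%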
Reading the numbers: G2 robust z-score: higher = more G2 cells, more excess DNA replication
Rule for the call: 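Active siRNAs have a G2 robust z of 5 or more median absolute deviations over the median, which in these data means about 38% or higher of GMNN control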
In all, the deposit lists about 59,000 reagents; this is a random part of them. About 1,550 of them (2.6%) were called active. 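G2 share is only a proxy for re-replication; each gene was hit by three separate siRNAs, and active genes were retested.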 Entries without a mark were called inactive. Reagents against one gene are numbered here. Not all columns of the deposit are shown. Not stated in the record: the amount of reagent.

target	siRNA no.	G2 robust z-score
ZNF8	1	-1.43
ZNF8	2	-1.15
ZNF8	3	-0.375
SLC22A23	1	-0.0126
SLC22A23	2	2.35
SLC22A23	3	3.43
MPI	1	-1.18
MPI	2	2.32
MPI	3	-0.615
PHKG2	1	-0.629
PHKG2	2	-1.16
PHKG2	3	1.56
WDR70	1	1.76
WDR70	2	-0.902
WDR70	3	0.128
COMTD1	1	0.704
COMTD1	2	-0.702
COMTD1	3	-1.3
HOOK1	1	-0.748
HOOK1	2	-0.571
HOOK1	3	-0.895
GPX8	1	-0.131
GPX8	2	0.269
GPX8	3	2.9
CHD8	1	-0.0289
CHD8	2	0.846
CHD8	3	4.06
CYCS	1	0.0741
CYCS	2	3.62
CYCS	3	-0.844
PSMD3	1	4.4
PSMD3	2	1.14
PSMD3	3	2.62
DRD5	1	-0.0817
DRD5	2	0.893
DRD5	3	-1.17
TRIM16L	1	1.27
TRIM16L	2	-0.343
TRIM16L	3	-0.325
BAP1	1	1.14
BAP1	2	0.139
BAP1	3	-0.84
PCDH11X	1	2.85
PCDH11X	2	2.24
PCDH11X	3	-0.179
CCDC93	1	-1.42
CCDC93	2	0.547
CCDC93	3	-0.69
BNIP1	1	-0.363
BNIP1	2	-0.0534
BNIP1	3	-0.687
LINC01545	1	1.31
LINC01545	2	2.93
LINC01545	3	-0.678
OR51G1	1	0.448
OR51G1	2	-0.515
OR51G1	3	1.42
ZNF862	1	0.674
ZNF862	2	0.136
ZNF862	3	-0.475
PSME3	1	-0.658
PSME3	2	0.902
PSME3	3	2.76
ATG4C	1	0.0949
ATG4C	2	0.483
ATG4C	3	-0.00496
PTPN2P1	1	-0.547
PTPN2P1	2	0.629
PTPN2P1	3	-0.7

Reformatted: 3 of the entries above
MPI #3 | G2 robust z-score: -0.615
PHKG2 #1 | G2 robust z-score: -0.629
PHKG2 #2 | G2 robust z-score: -1.16
